For 39 compounds, AC50 results are on record in PubChem BioAssay AID493014 (National Center for Advancing Translational Sciences (NCATS), 2011).

The structures appear in SMILES notation. Some of the results follow. Shown are side measurements of this screen, not its main read-out; they come without a call. Most of these compounds were active or inconclusive in the main read-out, so they are no random draw. Words in brackets tell the shape of the fitted curve; partial curves, single points and poor fits give uncertain potencies.

This test is described as follows: qHTS Assay to Find Inhibitors of Chronic Active B-Cell Receptor Signaling. As to conditions: ABC-DLBCL IkBa-CBG/CBR reporter, luminescence ratio (green luciferase fused to IkBa over red control in TMD8 lymphoma cells), 4 h. The essentials: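 TMD8 human ABC-DLBCL cells with doxycycline-inducible IκBα–green luciferase fusion and unfused red luciferase, in 0.5% FBS medium; compounds up to 46 uM, 4 h at 37C. Green/red luminescence ratio, filter-overlap corrected, fitted to concentration-response curves.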
A general note: qHTS replaces the single test concentration by a dilution series.

Where [1] appears, read: measured here: CBR red luminescence, cell number.
The mark [2] stands for this setting: measured here: IkBa-CBG green luminescence.

Turning to `C=CCOc1ccc2ccccc2c1CNn1cn[nH]c1=S`, the AC50 is, setting by setting: under setting [1], 4.47 µM [rising, partial curve, poor fit]; under setting [2], 15.8 µM [falling, single point]. `CCCCCC(=O)NNC1CC(=O)N(c2ccccc2)C1=O` (configuration not stated): under setting [1], the AC50 was 5.62 µM [falling, single point]. In the case of `Cc1ccc2c(c1)C(=O)OC(C(=O)Nc1ccccc1C(=O)O)C2` (configuration not stated), the AC50 under setting [1] was 1.12 µM [falling, full curve]. On the same count and under the same terms, under `NC(=O)c1ccc(NC(=O)CCCN2C(=O)c3ccccc3C2=O)cc1` stands 14.6 µM [rising, partial curve, poor fit]; under `O=S(=O)(Nc1ccc(-c2cn3ccccc3n2)cc1)c1ccccc1`, 17.8 µM [rising, partial curve, poor fit]; under `CCC(=O)Nc1c(S(=O)(=O)c2ccc(C)cc2)c2nc3ccccc3nc2n1C(C)c1ccccc1` (configuration not stated), 16.4 µM [falling, partial curve]. For the compound `CCOC(=O)C1CCN(c2c(N3CCCCCC3)c(=O)c2=O)CC1`, the AC50 under setting [1] is 18.4 µM [rising, partial curve, poor fit]. Same read-out and setting: the result for `CC(=O)c1ccc(OC(=O)CCc2nc3ccccc3s2)cc1` reads 5.01 µM [falling, partial curve, poor fit]; that for `CC1CC1c1ccc(/C=C(\C#N)C(=O)Nc2ccc(Cl)cc2Cl)o1` (configuration not stated), 32.6 µM [falling, partial curve, poor fit]; that for `Cc1cc(C(=O)OCC(=O)c2c(N)n(C)c(=O)n(C)c2=O)c(C)n1-c1ccccc1`, 3.66 µM [rising, partial curve, poor fit].

In the case of `Cc1nc(NC(=O)c2cc3c(s2)CCCCC3)sc1C(=O)N(C)C`, the AC50 under setting [1] is 3.16 µM [falling, single point].

As to `Cc1ccc(NC(=O)C2CCCN(S(=O)(=O)c3cccs3)C2)cc1` (configuration not stated), the AC50 under setting [1] was 0.708 µM [falling, full curve, poor fit].

On to `CCSC1=C(C#N)C(c2ccccc2C)CC(=O)N1` (configuration not stated), for which the AC50 under setting [1] is 0.00651 µM [rising, full curve, poor fit]. Still for that read-out and setting: under `N#Cc1cn(CCCOc2ccccc2)c2ccccc12` stands 10.3 µM [rising, partial curve, poor fit]. On to `NC(=S)N/N=C/c1ccc(-c2ccc(SC(F)F)cc2)o1`, for which the AC50 by setting is: under setting [1], 2.82 µM [falling, full curve]; under setting [2], 5.62 µM [falling, single point].

With `O=c1cc(-c2ccccc2)oc2ccc(Br)cc12`, under setting [1], the AC50 is 1.64 µM [rising, full curve, poor fit]. On the same count and under the same terms, under `CC(C)(C)c1ccc(/C=C2\Oc3c(ccc(O)c3CN3CCN(CCO)CC3)C2=O)cc1` stands 14.1 µM [falling, single point]; under `Fc1ccc(-c2nnc(CSc3nnc(-c4ccc5c(c4)OCO5)o3)o2)cc1`, 3.16 µM [falling, single point]; under `O=C(CN1C(=O)NC2(CCCC2)C1=O)OCCOc1cccc(Cl)c1`, 2.91 µM [rising, full curve, poor fit]. For the compound `CCCCn1c(SCC(N)=O)nc2ccc(N3CCOCC3)cc2c1=O`, the AC50 under setting [1] was 25.1 µM [falling, single point]. The same measure, in the same setting: the result for `O=C(O)c1ccc2nc(-c3ccccc3)sc2c1` reads 3.66 µM [falling, full curve]; that for `COc1cccc(NC(=O)C(=O)N/N=C(\C)CC(=O)Nc2ccc(NC(C)=O)cc2)c1`, 2.51 µM [falling, partial curve, poor fit]; that for `Cc1ccc(S(=O)(=O)NCc2cn3ccsc3n2)c(C)c1`, 3.98 µM [falling, full curve]. As for `NS(=O)(=O)c1ccc(N2N=C(c3ccc(Br)cc3)CC2c2ccc(F)cc2)cc1` (configuration not stated), the AC50 under setting [1] is 18.4 µM [falling, partial curve]. Consider `O=C(O)CCCCCCCCc1cn(Cc2ccc(C(=O)c3ccccc3)cc2)nn1`, for which the AC50 is, setting by setting: under setting [1], 7.08 µM [rising, full curve]; under setting [2], 10 µM [falling, partial curve]. Regarding `Cc1cc(C)n(-c2nc(NCC3CCCO3)c3c4c(sc3n2)COC(C)(C)C4)n1` (configuration not stated), under setting [1], the AC50 was 0.731 µM [falling, full curve, poor fit]. Still for that read-out and setting: under `COc1cc2c(cc1NC(=O)c1cccnc1)oc1ccccc12` stands 16.4 µM [falling, single point]; under `Cc1ccc(-n2nnc(-c3nccs3)n2)cc1`, 7.94 µM [falling, partial curve]; under `O=C(CNC(=O)c1[nH]cnc1C(=O)N[C@@H](Cc1ccccc1)C(=O)OCc1ccccc1)OCc1ccccc1`, 3.98 µM [falling, single point]. On the same count and under the same terms, the result for `O=C(O)C1CCN(C(=O)COc2ccc(Br)cc2)CC1` reads 4.47 µM [falling, full curve]; that for `CCCOc1ccc(-c2cn3ccccc3n2)cc1[N+](=O)[O-]`, 6.51 µM [rising, partial curve]. The same measure, in the same setting: the result for `CCCc1cc(C(=O)NCCc2ccccc2)no1` reads 14.6 µM [falling, partial curve]. Consider `Cn1c(/C=C(\C#N)C(N)=S)ccc1-c1ccc(Br)cc1`, for which, under setting [1], the concentration at half-maximal activity (AC50) was 35.5 µM [falling, single point]. Same read-out and setting: the result for `Cc1cn(C)c(CC(=O)Nc2ccc(F)cc2Cl)c1C(=O)O` reads 6.31 µM [falling, single point]. On to `COc1ccc(NC(=O)NNS(=O)(=O)c2ccc(OC)c(OC)c2)c(OC)c1`, for which the AC50 under setting [1] is 12.6 µM [rising, partial curve, poor fit]. On the same count and under the same terms, under `CCOC(=O)Nc1ccc(C(=O)Oc2ccccc2)c(O)c1` stands 3.98 µM [rising, partial curve, poor fit]; under `Cc1ccc([N+](=O)[O-])cc1N(CC(=O)Nc1ccc(S(=O)(=O)Nc2cccc(C(F)(F)F)c2)cc1)S(C)(=O)=O`, 20.6 µM [falling, partial curve].

In the case of `O=C(CSc1nnc(CNC(=O)C23CC4CC(CC(C4)C2)C3)n1-c1ccccc1)Nc1ccccc1`, the AC50 under setting [1] was 0.206 µM [falling, full curve, poor fit].

Turning to `CN1CCN(Cc2nc3ccccc3c(=O)n2Cc2nc(-c3cccc([N+](=O)[O-])c3)cs2)CC1`, under setting [1], the concentration at half-maximal activity (AC50) is 20 µM [falling, partial curve, poor fit].

Broadly, the AC50 is the concentration giving half of the maximal activity seen.
